PubChem BioAssay AID1508597, Cure First | 2020

Purpose: 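Survival screen with siRNA in ovarian cancer cells derived from patients, with or without rucaparib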 (primary screen)
Cell system: human ovarian carcinoma lines grown from tumours: OCI-P5x (papillary serous) and OCI-C5x (clear cell)
Knock-down reagent: siRNA pool against human genes, 1.25 pmol siRNA per well
Timing: 72 h or 96 h, depending on the cell culture
Conditions: rucaparib 20 µM (about IC30) or vehicle, present until read-out
Rucaparib or vehicle: Rucaparib
Cell line: OCI-P5x (serous)
Measurement: 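ATP luminescence measured at 72 or 96 h according to the culture, then normalised and expressed as percent viability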
Direction: viability, normalised: higher = more viable cells remaining
Active means: 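a well counts as a hit if its normalised viability is under 80 percent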
Meaning of the calls: active = viability under 80%; inactive = viability 80% or more
Shown is a random part of the about 2,100 reagents, under one of the conditions tested. 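Calls flag viability under 80% in either arm, not effects specific to rucaparib; the reference for percent is not stated.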 Not given: the 100% reference.

{"gene symbol": "FLT1 (fms related receptor tyrosine kinase 1)", "technical replicate": "1", "viability, normalised (%)": 89.1, "Outcome": "inactive"}
{"gene symbol": "FLT1 (fms related receptor tyrosine kinase 1)", "technical replicate": "2", "viability, normalised (%)": 89.6, "Outcome": "inactive"}
{"gene symbol": "FLT1 (fms related receptor tyrosine kinase 1)", "technical replicate": "3", "viability, normalised (%)": 95.4, "Outcome": "inactive"}
{"gene symbol": "STYK1 (STY kinase 1)", "technical replicate": "1", "viability, normalised (%)": 82.9, "Outcome": "inactive"}
{"gene symbol": "STYK1 (STY kinase 1)", "technical replicate": "2", "viability, normalised (%)": 74.4, "Outcome": "active"}
{"gene symbol": "STYK1 (STY kinase 1)", "technical replicate": "3", "viability, normalised (%)": 44.7, "Outcome": "active"}

Ordered by “viability, normalised (%)” (descending): some entries from above
{"gene symbol": "FLT1 (fms related receptor tyrosine kinase 1)", "technical replicate": "2", "viability, normalised (%)": 89.6, "Outcome": "inactive"}
{"gene symbol": "FLT1 (fms related receptor tyrosine kinase 1)", "technical replicate": "1", "viability, normalised (%)": 89.1, "Outcome": "inactive"}

More results follow:
{"gene symbol": "SLC1A4", "technical replicate": "1", "viability, normalised (%)": 56.5, "Outcome": "active"}
{"gene symbol": "SLC1A4", "technical replicate": "2", "viability, normalised (%)": 50.2, "Outcome": "active"}
{"gene symbol": "SLC1A4", "technical replicate": "3", "viability, normalised (%)": 55.7, "Outcome": "active"}
{"gene symbol": "SMC2 (structural maintenance of chromosomes 2)", "technical replicate": "1", "viability, normalised (%)": 82.1, "Outcome": "inactive"}
{"gene symbol": "SMC2 (structural maintenance of chromosomes 2)", "technical replicate": "2", "viability, normalised (%)": 61.5, "Outcome": "active"}
{"gene symbol": "SMC2 (structural maintenance of chromosomes 2)", "technical replicate": "3", "viability, normalised (%)": 73.2, "Outcome": "active"}
